{
  "source": "patent US20120322153A1",
  "about": "“REPROGRAMMING A CELL BY ACTIVATION OF THE ENDOGENOUS TRANSCRIPTION FACTOR NETWORK” (NUPOTENTIAL, INC., priority 2009, published 2012)",
  "origin": "cited, not measured here",
  "tested_on": "HDAC",
  "details": "order of magnitude of affinity for HDAC; cited from earlier work",
  "note": "For at least one compound, name, drawing or mass did not settle the structure.",
  "data": [
    {"smiles": "CCC(=O)CCCCC[C@@H]1NC(=O)[C@H]2CCCCN2C(=O)[C@H]([C@@H](C)CC)NC(=O)[C@H](Cc2cn(OC)c3ccccc23)NC1=O", "note": "[Apicidin]", "values": [
      {"measurement": "Affinity Range", "result": "nM"}
    ]}
  ]
}
